# Results taken from the supplement of paper PMC3334620.
# The full ranking holds about 33,000 sequences; the median of “E-score (-0.5 to 0.5)” is about -0.016, and the highest 2% start at about 0.3. This is one part of the list.
# Target: T1, Yer184c (UniProt P39961)
# T1 sequence: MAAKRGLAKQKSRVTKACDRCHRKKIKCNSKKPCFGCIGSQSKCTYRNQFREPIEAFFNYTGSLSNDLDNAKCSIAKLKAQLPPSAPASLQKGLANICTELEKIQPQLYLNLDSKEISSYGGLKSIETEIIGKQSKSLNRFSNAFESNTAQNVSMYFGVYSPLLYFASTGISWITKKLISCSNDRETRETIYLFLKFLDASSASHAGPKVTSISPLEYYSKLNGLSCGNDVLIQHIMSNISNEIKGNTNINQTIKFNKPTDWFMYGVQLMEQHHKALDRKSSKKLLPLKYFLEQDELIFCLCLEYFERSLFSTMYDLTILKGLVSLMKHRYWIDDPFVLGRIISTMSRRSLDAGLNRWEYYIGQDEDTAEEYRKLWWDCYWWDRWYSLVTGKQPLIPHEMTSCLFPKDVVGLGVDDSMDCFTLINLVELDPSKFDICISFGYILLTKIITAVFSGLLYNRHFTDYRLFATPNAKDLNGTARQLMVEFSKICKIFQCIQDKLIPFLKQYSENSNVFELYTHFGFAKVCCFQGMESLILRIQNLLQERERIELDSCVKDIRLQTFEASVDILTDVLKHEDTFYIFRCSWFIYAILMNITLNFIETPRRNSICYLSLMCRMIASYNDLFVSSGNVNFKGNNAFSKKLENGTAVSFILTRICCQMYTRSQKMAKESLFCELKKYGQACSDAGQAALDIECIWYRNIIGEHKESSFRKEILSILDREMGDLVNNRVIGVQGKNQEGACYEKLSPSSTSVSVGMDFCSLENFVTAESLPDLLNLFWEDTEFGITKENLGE
# Experiment: PBM E-score (8-mer binding enrichment) (E-score (-0.5 to 0.5)); higher = stronger / more preferred TF binding
# Details: protein concentration: 100 nM; construct: GST-full length
# Method in brief: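 Masliner-normalised scans of fluorescent anti-GST signal were the basis for scoring. That signal came from GST-tagged yeast transcription factors applied at about 100-200 nM to double-stranded universal all-10-mer Agilent arrays on fresh or once-stripped slides. Each ungapped eight-base word, pooled with its reverse complement, received an E-score from the Universal PBM Analysis Suite.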
row,Sequence,PBM E-score
1,ACCAGGCC,0.0818
2,TAAATCGA,0.135
3,CAGTGGGG,-0.329
4,GAGGAAAC,0.0245
5,CCCGCTAA,-0.132
6,AACAGATA,0.0633
7,ACCTATAA,0.0255
8,CTGCTGTC,-0.0516
9,ATCGAGTC,-0.039
10,CACCACAC,-0.145
11,CGTGACAG,0.0369
12,ATCCGACA,0.162
13,AGCGCGGG,0.0344
14,CCGAAGCA,0.204
15,CAACATTG,-0.0313
16,CATGTAGA,-0.00013
17,ATCTGCAC,-0.0268
18,GCTGGATA,0.0407
19,GACTTTCC,-0.0958
20,AGACGATG,0.0198
21,GATGCCAC,-0.128
22,ACCTTAAC,0.00941
23,AGTTTCGC,-0.0623
24,GGTGTATA,-0.0735
25,AACCGTCC,-0.0788

row,Sequence,PBM E-score
1,ATTAAGAG,0.0705
2,ACCAGCCC,0.0368
3,CGATTGAC,0.134
4,ATACGGGA,-0.0103
5,ACCCGACA,0.0124
6,CCTATATA,0.026
7,ACGCCAGA,-0.132
8,CAAGCTAA,-0.157
9,AGACTCCG,-0.0142
10,CGCGGTGC,-0.126
11,ATCCACAT,0.0775
12,AGGGGAGG,-0.23
13,AAACAGTG,-0.0394
14,CAACTTCG,0.0579
15,CTTCCTGA,0.107
16,AATATTTG,0.149
17,AGCGTCCA,-0.0821
18,GCGTCCTA,-0.236
19,CCCGGCCG,0.371
20,CATACATC,-0.0101
21,GGGTACCC,-0.184
22,CAAAGCCA,-0.177
23,AATACTGG,-0.0692
24,CCCAGCAC,-0.221
25,GATTGCGA,0.196

row,Sequence,PBM E-score
1,CATATCAG,-0.147
2,CGGTTGAC,0.113
3,AGATTCTG,-0.0548
4,CGTAAAGA,0.0954
5,CAGACCCA,-0.131
6,CTGCTAGA,-0.0455
7,CGAGATCA,-0.0369
8,CCACTCCA,-0.188
9,CATTGCCA,0.0974
10,TCAAGCAA,-0.0759
11,AGCCGACG,0.12
12,CTTCGGGA,0.171
13,CCGCGTGA,0.141
14,AGTACCTG,-0.0935
15,CCATTCTA,-0.0184
16,ACTTCGTG,-0.0816
17,CGAAAATC,0.254
18,TATCGTCA,-0.1
19,ACGCGGCT,0.0493
20,AGCTACAT,-0.175
21,GATCCGCA,0.0531
22,CCCGCATC,-0.084
23,CGAACGAC,0.109
24,CCTGACAA,-0.115
25,AGGCTGTC,-0.108

row,Sequence,PBM E-score
1,TACGGCAA,0.158
2,CCAGGGTC,-0.283
3,CCATAGTC,-0.202
4,GAATGGTC,-0.0531
5,ACAATGGT,-0.24
6,AAGCGATT,-0.022
7,AACCCCAA,-0.102
8,ATTCCAGG,-0.161
9,ACCTGTAC,-0.0391
10,GATAAGTA,0.168
11,CCCGTCCA,-0.0786
12,AGACCTCG,0.0523
13,CTATAAGC,-0.0483
14,AAGAAAAT,0.265
15,CAGGTACG,-0.106
16,CGCAATCA,0.172
17,CATGCGGG,-0.0764
18,ATGGCTAC,-0.083
19,CAAGCGTC,-0.0502
20,AGGCGGGA,-0.104
21,GAGACATC,-0.0567
22,GACTACTA,0.096
23,GTAACCAA,0.12
24,ACTTTCAA,0.155
25,GATAAGAC,-0.0845

row,Sequence,PBM E-score
1,GCCTGCGC,-0.158
2,ACACCGGA,0.246
3,GACGTAAA,0.0285
4,CAGGTGTA,-0.273
5,GCGCGGAA,0.138
6,GCTGCGTA,-0.12
7,GTCCAATA,0.0552
8,GAAGGGCC,-0.164
9,GAGACGCA,0.0668
10,CAGTGAAC,-0.0206
11,GGACACAA,0.107
12,CAGTCGCG,-0.189
13,CATCATAG,-0.0492
14,CCTACCAC,-0.152
15,ATAGCGGG,-0.14
16,ACGCAGTA,-0.15
17,GGATGTCA,0.14
18,CTCTGCTA,-0.0157
19,CCGTGAGA,-0.0337
20,CACGTTTC,-0.0963
21,ATCACTGG,-0.147
22,ATGCTCAA,-0.198
23,ATCTTGCG,0.059
24,ACTTAAAT,0.15
25,ACTGTAAG,0.0451

# Random excerpt: four records from the list
row,Sequence,PBM E-score
7,AACCCCAA,-0.102
1,TACGGCAA,0.158
8,ATTCCAGG,-0.161
6,CCTATATA,0.026

# Following part:

row,Sequence,PBM E-score
1,TATAGTGA,0.0268
2,TCGTAGCA,-0.00446
3,GTGTTAAC,0.133
4,CGCCCACC,-0.202
5,GGAGAGAC,0.0204
6,AGCTTGTA,0.105
7,ATAAAGAT,0.272
8,ACTTAGAC,0.147
9,GCCCTACA,-0.132
10,ATTCCGAA,0.388
11,CCCTATCG,-0.254
12,ATGGGAAC,-0.0715
13,ACTTAGTC,-0.109
14,AGAAAGGC,-0.0641
15,CGTATAGA,-0.0191
16,TCTAGCAA,0.0828
17,CGTCCTTC,-0.0711
18,GCATCTAA,0.0891
19,CACGGAAC,0.349
20,GAGTGTTA,0.126
21,ACTTTGAT,0.0275
22,AAAGTACA,0.0108
23,ACATCCAC,-0.0312
24,AGCCGTCC,0.059
25,AAAAATAG,0.241

# Some values from the entries so far:
# AATATTTG – PBM E-score: 0.149
# AAGAAAAT – PBM E-score: 0.265
# ATCCGACA – PBM E-score: 0.162

# The list continues.

row,Sequence,PBM E-score
1,AATGGTAC,-0.00404
2,GGTGCTGA,0.00679
3,AGCTCCTA,-0.233
4,CTATGCGC,-0.104
5,AGTAAGCA,0.0578
6,CAACCTTC,-0.155
7,GCTTTTCC,0.109
8,TCTCGCAA,-0.0365
9,TCTGATCA,0.123
10,GAGGGCTA,-0.23
11,GAGCATCA,-0.121
12,CATCCAGA,-0.157
13,CGTGGTGA,-0.139
14,CCACACAA,-0.109
15,ACTAGCAA,0.0514
16,CGGCGCGA,0.273
17,AGCCCACT,-0.258
18,ACCCGATA,0.0212
19,ACGCGGAC,0.015
20,CTTGTAGC,-0.00278
21,CCACGCCA,-0.217
22,GCTGGTAC,-0.0845
